Test results published in PMC9243173.
These are yes or no findings as the source states them, for the method shown. Binding seen in cells or lysates may run through a third protein. Some entries that bind do so weakly or less than the wild type.

Protein sequences, listed by entry. Tags and fused reporters are not part of them. Lines headed by an entry give the natural chain unless they say otherwise; changes in a name come on top.
UniProt Q9H6Q4: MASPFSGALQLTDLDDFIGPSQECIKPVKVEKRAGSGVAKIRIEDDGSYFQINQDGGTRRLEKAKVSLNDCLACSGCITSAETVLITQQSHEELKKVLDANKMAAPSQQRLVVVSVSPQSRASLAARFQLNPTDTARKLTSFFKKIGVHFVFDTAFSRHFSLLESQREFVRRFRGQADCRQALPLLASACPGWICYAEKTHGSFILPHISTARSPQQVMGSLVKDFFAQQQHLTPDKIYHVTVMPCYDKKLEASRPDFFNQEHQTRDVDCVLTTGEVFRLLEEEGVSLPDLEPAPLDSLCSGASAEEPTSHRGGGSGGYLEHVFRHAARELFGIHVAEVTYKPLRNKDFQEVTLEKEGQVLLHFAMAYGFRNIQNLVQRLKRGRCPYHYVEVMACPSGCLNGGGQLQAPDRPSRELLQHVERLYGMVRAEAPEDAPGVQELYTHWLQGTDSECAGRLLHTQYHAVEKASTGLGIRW

Assays:
[1] = target: 3HA-3FLAG-CIAO3-S161I (human) (UniProt Q9H6Q4); assay: co-IP; anti-HA beads on whole cell extracts of Flp-In 293 cells expressing the 3HA-3FLAG-tagged bait (NUBP2, CIAO3 wildtype or S161I, ERCC2 wildtype or mutant); 100 mM Tris-HCl pH 8.0, 150 mM NaCl, 5% glycerol, 0.1% NP-40, 4 °C; immunoblot of endogenous partners; cells untreated or treated with FAC, DFO (3 or 8 h), tBHP (4 h), 1% O2 (16 h), nontarget siRNA or 1% formaldehyde
[2] = target: 3HA-3FLAG-CIAO3, wildtype (human) (UniProt Q9H6Q4); assay: as above

binding [1] | binding [2] | Binder
binds | – | CDKAL1 (protein, UniProt Q5VV42 1-579) MPSASCDTLLDDIEDIVSQEDSKPQDRHFVRKDVVPKVRRRNTQKYLQEEENSPPSDSTIPGIQKIWIRTWGCSHNNSDGEYMAGQLAAYGYKITENASDADLWLLNSCTVKNPAEDHFRNSIKKAQEENKKIVLAGCVPQAQPRQDYLKGLSIIGVQQIDRVVEVVEETIKGHSVRLLGQKKDNGRRLGGARLDLPKIRKNPLIEIISINTGCLNACTYCKTKHARGNLASYPIDELVDRAKQSFQEGVCEIWLTSEDTGAYGRDIGTNLPTLLWKLVEVIPEGAMLRLGMTNPPYILEHLEEMAKILNHPRVYAFLHIPVQSASDSVLMEMKREYCVADFKRVVDFLKEKVPGITIATDIICGFPGETDQDFQETVKLVEEYKFPSLFINQFYPRPGTPAAKMEQVPAQVKKQRTKDLSRVFHSYSPYDHKIGERQQVLVTEESFDSKFYVAHNQFYEQVLVPKNPAFMGKMVEVDIYESGKHFMKGQPVSDAKVYTPSISKPLAKGEVSGLTKDFRNGLGNQLSSGSHTSAASQCDSASSRMVLPMPRLHQDCALRMSVGLALLGLLFAFFVKVYN
binds weakly | binds | nucleotide-binding protein 1 (NUBP1) (protein, UniProt P53384 1-320) MEEVPHDCPGADSAQAGRGASCQGCPNQRLCASGAGATPDTAIEEIKEKMKTVKHKILVLSGKGGVGKSTFSAHLAHGLAEDENTQIALLDIDICGPSIPKIMGLEGEQVHQSGSGWSPVYVEDNLGVMSVGFLLSSPDDAVIWRGPKKNGMIKQFLRDVDWGEVDYLIVDTPPGTSDEHLSVVRYLATAHIDGAVIITTPQEVSLQDVRKEINFCRKVKLPIIGVVENMSGFICPKCKKESQIFPPTTGGAELMCQDLEVPLLGRVPLDPLIGKNCDKGQSFFIDAPDSPATLAYRSIIQRIQEFCNLHQSKEENLISS
binds weakly | binds | nucleotide-binding protein 2 (NUBP2), endogenous (protein, UniProt Q9Y5Y2 1-271) MEAAAEPGNLAGVRHIILVLSGKGGVGKSTISTELALALRHAGKKVGILDVDLCGPSIPRMLGAQGRAVHQCDRGWAPVFLDREQSISLMSVGFLLEKPDEAVVWRGPKKNALIKQFVSDVAWGELDYLVVDTPPGTSDEHMATIEALRPYQPLGALVVTTPQAVSVGDVRRELTFCRKTGLRVMGIVENMSGFTCPHCTECTSVFSRGGGEELAQLAGVPFLGSVPLDPALMRTLEEGHDFIQEFPGSPAFAALTSIAQKILDATPACLP
